Measurements from patent US9492510B2, “Composition and method for inhibiting tumor cell growth” (St. Jude Children's Research Hospital, priority 2006, dated 2016).
Read-outs that look alike come from different tables or passages of the source. At least one read-out could not be matched to a standard name with certainty.

Key:
[1] = Kinetic parameters for CPT-11 hydrolysis by purified recombinant CEs; assay type: biochemical; conditions: purified protein
Procedure: To directly compare the abilities of the mammalian CEs to hydrolyze CPT-11, a series of biochemical studies were carried out using the purified proteins in vitro. These experiments determined the Km, Vmax, kcat and kcat/Km values for the different enzymes.
Protein Purification. […] For hiCE, an alternative purification procedure was developed using DEAE chromatography and elution with a pH/salt gradient.
Determination of Kinetic Parameters for Substrate Hydrolysis.

[2] = CPT-11 hydrolysis, purified protein; data from Wadkins et al. 2001; cited from earlier work

B1: hiCE (human intestinal carboxylesterase) (Homo sapiens) (protein)
chain: QDSASPIRTTHTGQVLGSLVHVKGANAGVQTFLGIPFAKPPLGPLRFAPPEPPESWSGVRDGTTHPAMCLQDLTAVESEFLSQFNMTFPSDSMSEDCLYLSIYTPAHSHEGSNLPVMVWIHGGALVFGMASLYDGSMLAALENVVVVIIQYRLGVLGFFSTGDKHATGNWGYLDQVAALRWVQQNIAHFGGNPDRVTIFGESAGGTSVSSLVVSPISQGLFHGAIMESGVALLPGLIASSADVISTVVANLSACDQVDSEALVGCLRGKSKEEILAINKPFKMIPGVVDGVFLPRHPQELLASADFQPVPSIVGVNNNEFGWLIPKVMRIYDTQKEMDREASQAALQKMLTLLMLPPTFGDLLREEYIGDNGDPQTLQAQFQEMMADSMFVIPALQVAHFQCSRAPVYFYEFQHQPSWLKNIRPPHMKADHGDELPFVFRSFFGGNYIKFTEEEEQLSRKMMKYWANFARNGNPNGEGLPHWPLFDQEEQYLQLNLQPAVGRALKAHRLQFWKKALPQKIQELEEPEERHTEL
kcat/Km [1]: 420 M⁻¹ s⁻¹

B2: rCE: wild-type rabbit liver carboxylesterase, Genbank AF036930 (protein, listed as Oryctolagus cuniculus)
chain: GSLRFAPPQPAESWSHVKNTTSYPPMCSQDAVSGHMLSELFTNRKENIPLKFSEDCLYLNIYTPADLTKRGRLPVMVWIHGGGLMVGGASTYDGLALSAHENVVVVTIQYRLGIWGFFSTGDEHSRGNWGHLDQVAALRWVQDNIANFGGDPGSVTIFGESAGGQSVSILLLSPLTKNLFHRAISESGVALLSSLFRKNTKSLAEKIAIEAGCKTTTSAVMVHCLRQKTEEELMEVTLKMKFMALDLVGDPKENTAFLTTVIDGVLLPKAPAEILAEKKYNMLPYMVGINQQEFGWIIPMQMLGYPLSEGKLDQKTATELLWKSYPIVNVSKELTPVATEKYLGGTDDPVKKKDLFLDMLADLLFGVPSVNVARHHRDAGAPTYMYEYRYRPSFSSDMRPKTVIGDHGDEIFSVLGAPFLKEGATEEEIKLSKMVMKYWANFARNGNPNGEGLPQWPAYDYKEGYLQIGATTQAAQKLKDKEVAFWTELWAKEAARPRETEHIEL
kcat/Km [2]: 3000 M⁻¹ s⁻¹
